# Reference: the supplement of paper PMC8728848
# The list shows a part of the results.
# B1: Ovorubin (Pomacea canaliculata), J7I2T6 (protein)
# chain: MFVATSLLLAIATLVVRASPHNYLIMDIEPPKSVSERDILNLLSPLQVKHSFRVTGSTRLLIVIRLDAQSYEKLDEITVPGKVEVIPAVNMADTMERCGVSWPRVELTDDNVTLFESESTLTDVTKEQLKAMLIGYGEHMSGLLQAHRFEYYQAAGATPHRHFVFVNSVPDEIEVFGREGVDIWGGPGEFVVKPQYVTRI
# What was measured:
# Experiment in all cases: glycan array binding signal (z-score within array); higher = stronger binding
# Conditions in all cases: glycan notation: IUPAC condensed, linker removed
# [1] = target: Gal(b1-4)GlcNAc(b1-3)Gal(b1-4)GlcNAc(b1-2)Man(a1-3)[Gal(b1-4)GlcNAc(b1-3)Gal(b1-4)GlcNAc(b1-2)Man(a1-6)]Man(b1-4)GlcNAc(b1-4)[Fuc(a1-6)]GlcNAc
# Procedure, shortened: (§1)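 Columns mapping to the same glycan were averaged after glycan names were converted to IUPAC-condensed notation. The data come from 3228 arrays in the Consortium for Functional Glycomics database, limited to those with an available protein sequence. Binding is reported as a within-array Z-score averaged across arrays of one protein sequence and across linkers.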
# [2] = target: Gal(b1-4)GlcNAc(b1-3)Gal(b1-4)GlcNAc(b1-2)[Gal(b1-4)GlcNAc(b1-3)Gal(b1-4)GlcNAc(b1-6)]Man(a1-6)[Gal(b1-4)GlcNAc(b1-3)Gal(b1-4)GlcNAc(b1-2)Man(a1-3)]Man(b1-4)GlcNAc(b1-4)GlcNAc
# Procedure, shortened: as §1
# [3] = target: Gal(b1-4)GlcNAc(b1-3)Gal(b1-4)GlcNAc(b1-2)[Gal(b1-4)GlcNAc(b1-3)Gal(b1-4)GlcNAc(b1-6)]Man(a1-6)[Gal(b1-4)GlcNAc(b1-3)Gal(b1-4)GlcNAc(b1-2)Man(a1-3)]Man(b1-4)GlcNAc(b1-4)[Fuc(a1-6)]GlcNAc
# Procedure, shortened: as §1
# [4] = target: Gal(b1-4)GlcNAc(b1-3)Gal(b1-4)GlcNAc(b1-3)Gal(b1-4)GlcNAc
# Procedure, shortened: as §1
# [5] = target: Gal(b1-4)GlcNAc(b1-3)Gal(b1-4)GlcNAc(b1-3)Gal(b1-4)GlcNAc(b1-2)Man(a1-3)[Gal(b1-4)GlcNAc(b1-3)Gal(b1-4)GlcNAc(b1-3)Gal(b1-4)GlcNAc(b1-2)Man(a1-6)]Man(b1-4)GlcNAc(b1-4)GlcNAc
# Procedure, shortened: as §1
# [6] = target: Gal(b1-4)GlcNAc(b1-3)Gal(b1-4)GlcNAc(b1-3)Gal(b1-4)GlcNAc(b1-2)Man(a1-3)[Gal(b1-4)GlcNAc(b1-3)Gal(b1-4)GlcNAc(b1-3)Gal(b1-4)GlcNAc(b1-2)Man(a1-6)]Man(b1-4)GlcNAc(b1-4)[Fuc(a1-6)]GlcNAc
# Procedure, shortened: as §1
# [7] = target: Gal(b1-4)GlcNAc(b1-3)Gal(b1-4)GlcNAc(b1-3)Gal(b1-4)GlcNAc(b1-2)[Gal(b1-4)GlcNAc(b1-3)Gal(b1-4)GlcNAc(b1-3)Gal(b1-4)GlcNAc(b1-6)]Man(a1-6)[Gal(b1-4)GlcNAc(b1-3)Gal(b1-4)GlcNAc(b1-3)Gal(b1-4)GlcNAc(b1-2)Man(a1-3)]Man(b1-4)GlcNAc(b1-4)[Fuc(a1-6)]GlcNAc
# Procedure, shortened: as §1
# [8] = target: Gal(b1-4)GlcNAc(b1-3)Gal(b1-4)GlcNAc(b1-3)Gal(b1-4)GlcNAc(b1-3)Gal(b1-4)GlcNAc(b1-2)Man(a1-3)[Gal(b1-4)GlcNAc(b1-3)Gal(b1-4)GlcNAc(b1-3)Gal(b1-4)GlcNAc(b1-3)Gal(b1-4)GlcNAc(b1-2)Man(a1-6)]Man(b1-4)GlcNAc(b1-4)GlcNAc
# Procedure, shortened: as §1
# [9] = target: Gal(b1-4)GlcNAc(b1-3)Gal(b1-4)GlcNAc(b1-3)Gal(b1-4)GlcNAc(b1-3)Gal(b1-4)GlcNAc(b1-2)Man(a1-3)[Gal(b1-4)GlcNAc(b1-3)Gal(b1-4)GlcNAc(b1-3)Gal(b1-4)GlcNAc(b1-3)Gal(b1-4)GlcNAc(b1-2)Man(a1-6)]Man(b1-4)GlcNAc(b1-4)[Fuc(a1-6)]GlcNAc
# Procedure, shortened: as §1
# [10] = target: Gal(b1-4)GlcNAc(b1-3)Gal(b1-4)GlcNAc(b1-3)Gal(b1-4)GlcNAc(b1-3)Gal(b1-4)GlcNAc(b1-2)[Gal(b1-4)GlcNAc(b1-3)Gal(b1-4)GlcNAc(b1-3)Gal(b1-4)GlcNAc(b1-3)Gal(b1-4)GlcNAc(b1-6)]Man(a1-6)[Gal(b1-4)GlcNAc(b1-3)Gal(b1-4)GlcNAc(b1-3)Gal(b1-4)GlcNAc(b1-3)Gal(b1-4)GlcNAc(b1-2)Man(a1-3)]Man(b1-4)GlcNAc(b1-4)[Fuc(a1-6)]GlcNAc
# Procedure, shortened: as §1
# [11] = target: Gal(b1-4)GlcNAc(b1-3)Gal(b1-4)GlcNAc(b1-3)Gal(b1-4)GlcNAc(b1-3)Gal(b1-4)GlcNAc(b1-3)Gal(b1-4)GlcNAc(b1-2)Man(a1-3)[Gal(b1-4)GlcNAc(b1-3)Gal(b1-4)GlcNAc(b1-3)Gal(b1-4)GlcNAc(b1-3)Gal(b1-4)GlcNAc(b1-3)Gal(b1-4)GlcNAc(b1-2)Man(a1-6)]Man(b1-4)GlcNAc(b1-4)GlcNAc
# Procedure, shortened: as §1
# [12] = target: Gal(b1-4)GlcNAc(b1-3)Gal(b1-4)GlcNAc(b1-3)Gal(b1-4)GlcNAc(b1-3)Gal(b1-4)GlcNAc(b1-3)Gal(b1-4)GlcNAc(b1-2)Man(a1-3)[Gal(b1-4)GlcNAc(b1-3)Gal(b1-4)GlcNAc(b1-3)Gal(b1-4)GlcNAc(b1-3)Gal(b1-4)GlcNAc(b1-3)Gal(b1-4)GlcNAc(b1-2)Man(a1-6)]Man(b1-4)GlcNAc(b1-4)[Fuc(a1-6)]GlcNAc
# Procedure, shortened: as §1
# [13] = target: Gal(b1-4)GlcNAc(b1-3)Gal(b1-4)GlcNAc(b1-3)Gal(b1-4)GlcNAc(b1-3)Gal(b1-4)GlcNAc(b1-3)Gal(b1-4)GlcNAc(b1-2)[Gal(b1-4)GlcNAc(b1-3)Gal(b1-4)GlcNAc(b1-3)Gal(b1-4)GlcNAc(b1-3)Gal(b1-4)GlcNAc(b1-3)Gal(b1-4)GlcNAc(b1-6)]Man(a1-6)[Gal(b1-4)GlcNAc(b1-3)Gal(b1-4)GlcNAc(b1-3)Gal(b1-4)GlcNAc(b1-3)Gal(b1-4)GlcNAc(b1-3)Gal(b1-4)GlcNAc(b1-2)Man(a1-3)]Man(b1-4)GlcNAc(b1-4)[Fuc(a1-6)]GlcNAc
# Procedure, shortened: as §1
# [14] = target: Gal(b1-4)GlcNAc(b1-3)Gal(b1-4)GlcNAc(b1-3)Gal(b1-4)GlcNAc(b1-3)Gal(b1-4)GlcNAc(b1-3)Gal(b1-4)GlcNAc(b1-3)Gal(b1-4)GlcNAc(b1-2)Man(a1-3)[Gal(b1-4)GlcNAc(b1-3)Gal(b1-4)GlcNAc(b1-3)Gal(b1-4)GlcNAc(b1-3)Gal(b1-4)GlcNAc(b1-3)Gal(b1-4)GlcNAc(b1-3)Gal(b1-4)GlcNAc(b1-2)Man(a1-6)]Man(b1-4)GlcNAc(b1-4)GlcNAc
# Procedure, shortened: as §1
# [15] = target: Gal(b1-4)GlcNAc(b1-3)Gal(b1-4)GlcNAc(b1-3)GalNAc
# Procedure, shortened: as §1
# [16] = target: Gal(b1-4)GlcNAc(b1-3)Gal(b1-4)GlcNAc(b1-3)[Gal(b1-4)GlcNAc(b1-3)Gal(b1-4)GlcNAc(b1-6)]GalNAc
# Procedure, shortened: as §1
# [17] = target: Gal(b1-4)GlcNAc(b1-3)Gal(b1-4)GlcNAc(b1-6)[Gal(b1-3)]GalNAc
# Procedure, shortened: as §1
# [18] = target: Gal(b1-4)GlcNAc(b1-3)Gal(b1-4)[Fuc(a1-3)]GlcNAc(b1-3)Gal(b1-4)[Fuc(a1-3)]GlcNAc
# Procedure, shortened: as §1
# [19] = target: Gal(b1-4)GlcNAc(b1-3)GalNAc
# Procedure, shortened: as §1
# [20] = target: Gal(b1-4)GlcNAc(b1-3)[Fuc(a1-3)GlcNAc(b1-6)]Gal(b1-4)Glc
# Procedure, shortened: as §1
# [21] = target: Gal(b1-4)GlcNAc(b1-3)[Gal(b1-4)GlcNAc(b1-6)]Gal(b1-4)GlcNAc
# Procedure, shortened: as §1
# [22] = target: Gal(b1-4)GlcNAc(b1-3)[GlcNAc(b1-6)]Gal(b1-4)GlcNAc
# Procedure, shortened: as §1
# [23] = target: Gal(b1-4)GlcNAc(b1-6)Gal(b1-4)GlcNAc
# Procedure, shortened: as §1
# [24] = target: Gal(b1-4)GlcNAc(b1-6)GalNAc
# Procedure, shortened: as §1
# [25] = target: Gal(b1-4)GlcNAc(b1-6)[Gal(b1-3)]GalNAc
# Procedure, shortened: as §1
# [26] = target: Gal(b1-4)GlcNAc(b1-6)[Gal(b1-4)GlcNAc(b1-3)]GalNAc
# Procedure, shortened: as §1
# Gal(b1-4)GlcNAc6P = target: Gal(b1-4)GlcNAc6P
# Procedure, shortened: as §1
# Gal(b1-6)Gal = target: Gal(b1-6)Gal
# Procedure, shortened: as §1
# Gal3S(b1-3)GalNAc = target: Gal3S(b1-3)GalNAc
# Procedure, shortened: as §1
# Gal3S(b1-3)GlcNAc = target: Gal3S(b1-3)GlcNAc
# Procedure, shortened: as §1
# [27] = target: Gal3S(b1-3)[Fuc(a1-4)]GlcNAc
# Procedure, shortened: as §1
# Gal3S(b1-4)Glc = target: Gal3S(b1-4)Glc
# Procedure, shortened: as §1
# Gal3S(b1-4)Glc6S = target: Gal3S(b1-4)Glc6S
# Procedure, shortened: as §1
# Gal3S(b1-4)GlcNAc = target: Gal3S(b1-4)GlcNAc
# Procedure, shortened: as §1
# [28] = target: Gal3S(b1-4)[Fuc(a1-3)]Glc6S
# Procedure, shortened: as §1
# [29] = target: Gal3S(b1-4)[Fuc(a1-3)]GlcNAc
# Procedure, shortened: as §1
# [30] = target: Gal3S(b1-4)[Fuc(a1-3)]GlcNAc6S
# Procedure, shortened: as §1
# Gal3S4S(b1-4)GlcNAc = target: Gal3S4S(b1-4)GlcNAc
# Procedure, shortened: as §1
# Gal3S6S(b1-4)GlcNAc = target: Gal3S6S(b1-4)GlcNAc
# Procedure, shortened: as §1
# Gal3S6S(b1-4)GlcNAc6S = target: Gal3S6S(b1-4)GlcNAc6S
# Procedure, shortened: as §1
# Gal4S(b1-4)GlcNAc = target: Gal4S(b1-4)GlcNAc
# Procedure, shortened: as §1
# Gal4S6S(b1-4)GlcNAc = target: Gal4S6S(b1-4)GlcNAc
# Procedure, shortened: as §1
# Gal6P(b1-4)GlcNAc = target: Gal6P(b1-4)GlcNAc
# Procedure, shortened: as §1
# Gal6S(b1-3)GlcNAc = target: Gal6S(b1-3)GlcNAc
# Procedure, shortened: as §1
# Gal6S(b1-3)GlcNAc6S = target: Gal6S(b1-3)GlcNAc6S
# Procedure, shortened: as §1
binder,measurement,setting,value
B1,glycan array binding signal (z-score),[1],1.69
same,glycan array binding signal (z-score),[2],1.48
same,glycan array binding signal (z-score),[3],-0.253
same,glycan array binding signal (z-score),[4],-0.822
same,glycan array binding signal (z-score),[5],0.387
same,glycan array binding signal (z-score),[6],0.042
same,glycan array binding signal (z-score),[7],1.47
same,glycan array binding signal (z-score),[8],-0.132
same,glycan array binding signal (z-score),[9],0.326
same,glycan array binding signal (z-score),[10],2.18
same,glycan array binding signal (z-score),[11],1.6
same,glycan array binding signal (z-score),[12],0.92
same,glycan array binding signal (z-score),[13],2.67
same,glycan array binding signal (z-score),[14],0.062
same,glycan array binding signal (z-score),[15],-0.072
same,glycan array binding signal (z-score),[16],-0.199
same,glycan array binding signal (z-score),[17],-0.3
same,glycan array binding signal (z-score),[18],-0.444
same,glycan array binding signal (z-score),[19],-0.423
same,glycan array binding signal (z-score),[20],-0.438
same,glycan array binding signal (z-score),[21],-0.984
same,glycan array binding signal (z-score),[22],-1.08
same,glycan array binding signal (z-score),[23],0.458
same,glycan array binding signal (z-score),[24],0.534
same,glycan array binding signal (z-score),[25],0.113
same,glycan array binding signal (z-score),[26],1.29
same,glycan array binding signal (z-score),Gal(b1-4)GlcNAc6P,-0.461
same,glycan array binding signal (z-score),Gal(b1-6)Gal,-0.193
same,glycan array binding signal (z-score),Gal3S(b1-3)GalNAc,0.802
same,glycan array binding signal (z-score),Gal3S(b1-3)GlcNAc,0.578
same,glycan array binding signal (z-score),[27],-0.587
same,glycan array binding signal (z-score),Gal3S(b1-4)Glc,-0.766
same,glycan array binding signal (z-score),Gal3S(b1-4)Glc6S,0.882
same,glycan array binding signal (z-score),Gal3S(b1-4)GlcNAc,-0.423
same,glycan array binding signal (z-score),[28],3.72
same,glycan array binding signal (z-score),[29],0.624
same,glycan array binding signal (z-score),[30],1.26
same,glycan array binding signal (z-score),Gal3S4S(b1-4)GlcNAc,9.33
same,glycan array binding signal (z-score),Gal3S6S(b1-4)GlcNAc,4.31
same,glycan array binding signal (z-score),Gal3S6S(b1-4)GlcNAc6S,0.237
same,glycan array binding signal (z-score),Gal4S(b1-4)GlcNAc,0.112
same,glycan array binding signal (z-score),Gal4S6S(b1-4)GlcNAc,2.17
same,glycan array binding signal (z-score),Gal6P(b1-4)GlcNAc,-0.405
same,glycan array binding signal (z-score),Gal6S(b1-3)GlcNAc,-0.856
same,glycan array binding signal (z-score),Gal6S(b1-3)GlcNAc6S,1.01

# 3 entries from above in another layout:
binder	measurement	setting	value
B1	glycan array binding signal (z-score)	[3]	-0.253
same	glycan array binding signal (z-score)	[18]	-0.444
same	glycan array binding signal (z-score)	[26]	1.29
